Patent publication US20070207155A1
Results are given in words; binding and its absence hold for the method and conditions named. Some binding calls cover weakened binding; strength is not graded here.

The chains behind the UniProt entries cited, without tags or fusion partners. Where a name states a change or a piece, a line headed by the entry shows the natural chain unless it says otherwise. A line that says so, or that is headed by a name, gives the form on record, which may keep a tag or linker. Residues count along the entry.
human platelet membrane glycoprotein VI (GPVI) (Q9HCN6, residues 21-339): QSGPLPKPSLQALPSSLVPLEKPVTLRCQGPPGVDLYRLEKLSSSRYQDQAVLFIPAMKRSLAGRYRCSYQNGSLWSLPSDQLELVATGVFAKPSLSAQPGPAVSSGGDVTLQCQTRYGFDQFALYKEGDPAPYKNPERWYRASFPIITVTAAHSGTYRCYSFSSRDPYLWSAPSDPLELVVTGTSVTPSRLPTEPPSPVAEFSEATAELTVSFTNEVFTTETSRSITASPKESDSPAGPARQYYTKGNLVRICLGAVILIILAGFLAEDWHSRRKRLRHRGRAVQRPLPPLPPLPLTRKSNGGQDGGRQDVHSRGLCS
recombinant soluble GPVI (ectodomain of human GPVI, residues 22-219, with V5 and His×6 tags) (Q9HCN6, form named): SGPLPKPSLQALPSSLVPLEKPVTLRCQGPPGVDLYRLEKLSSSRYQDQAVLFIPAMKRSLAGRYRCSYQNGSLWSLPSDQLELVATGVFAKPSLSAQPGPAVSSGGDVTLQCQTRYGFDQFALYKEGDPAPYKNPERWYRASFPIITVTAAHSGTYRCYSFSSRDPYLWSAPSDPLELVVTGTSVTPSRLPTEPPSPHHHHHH

Tests used:
[1] = target: human platelet membrane glycoprotein VI (GPVI) (human) (UniProt Q9HCN6); test: Western blot of human platelet lysate, biotinylated convulxin
[2] = target: recombinant soluble GPVI (ectodomain of human GPVI, residues 22-219, with V5 and His×6 tags) (human) (UniProt Q9HCN6); test: Western blot and ELISA
[3] = target: human platelet membrane glycoprotein VI (GPVI) (human) (UniProt Q9HCN6); test: FACS on CHO cells stably expressing human GPVI and FcRγ

Measured: binding

B1: convulxin (ligand)
chain 1: GLHCPSDWYYYDQHCYRIFNEEMNWEDAEWFCTKQAKGAHLVSIKSAKEADFVAWMVTQNIEESFSHVSIGLRVQNKEKQCSTKWSDGSSVSYDNLLDLYITKCSLLKKETGFRKWFVASCIGKIPFVCKFPPQC
chain 2: GFCCPSHWSSYDRYCYKVFKQEMTWADAEKFCTQQHTGSHLVSFHSTEEVDFVVKMTHQSLKSTFFWIGANNIWNKCNWQWSDGTKPEYKEWHEEFECLISRTFDNQWLSAPCSDTYSFVCKFEA
modifications: biotinylated (Western blot, ELISA) or FITC-labeled (FACS); sites not stated
binds: [1] | [2] | [3]
